Assay: LC-MS/MS ergothionine measurement in seminal plasma and sperm cells
Design: species or system human
Conditions: endogenous, mass spectrometric analysis

## C[N+](C)(C)[C@@H](Cc1c[nH]c(=S)[nH]1)C(=O)[O-] [ergothionine]
  level of ergothionine in human seminal plasma: 0 to 290 µM
  level of ergothionine in human sperm cells: 0.42 to 49 µM
